# Results from article PMC9979347 (ACS Omega, 2023).
# What was measured:
# Assay in all cases: cells
# hypoxic HCT116 cells = details: Homo sapiens, HCT-116, 48 h, read-out: Cytotoxicity IC50 (μM ± SD) HCT116
# hypoxic LOX IMVI cells = details: Homo sapiens, 48 h, read-out: Cytotoxicity IC50 (μM ± SD) LOX IMVI
# hypoxic U251 cells = details: Homo sapiens, U-251, 48 h, read-out: Cytotoxicity IC50 (μM ± SD) U251
# HEK293T cells = details: Homo sapiens, HEK-293T, 48 h, read-out: IC50 (μM ± SD) normal HEK293T cells
structure (smiles),measurement,setting,value
"CN[C@@H]1C[C@H]2O[C@@](C)([C@@H]1OC)n1c3ccccc3c3c4c(c5c6ccccc6n2c5c31)C(=O)NC4 [staurosporine, reference compound]",IC50,hypoxic HCT116 cells,5.72 ± 0.33 µM
same,IC50,hypoxic LOX IMVI cells,13.7 ± 0.65 µM
same,IC50,hypoxic U251 cells,11.1 ± 0.51 µM
same,IC50,HEK293T cells,17.8 ± 0.91 µM
